Measured values from patent publication US20210163604A1 (MITSUBISHI TANABE PHARMA, published 2021).
No constants are given. Whether binding was seen depends on the method and setting. Some binding calls cover weakened binding; strength is not graded here.

Key:
[1] = target: monkey cMET (Macaca fascicularis, Cynomolgus Macaque) (Cynomolgus Macaque (Macaca fascicularis)); test: ELISA, species cross-reactivity (NHP column)
[2] = target: monkey cMET (Macaca fascicularis, Cynomolgus Macaque) (Cynomolgus Macaque (Macaca fascicularis)); test: ELISA, species cross-reactivity, antibody titrated on cynomolgus cMET; x axis printed -8 to 2 with ug/mL (log10)
human cMET = target: T1, human cMET (human, UniProt P08581 25-932, limits assumed); test: ELISA, species cross-reactivity, antibody titrated on human cMET; x axis printed -8 to 2 with ug/mL (log10)
T1 construct: also called hMET; HGFR

[3] = target: T2, Recombinant Human c-Met-10x His (human, UniProt P08581 25-932); test: MET Binding ELISA on plate-bound human cMET; y axis Luminescence
T2 construct: Made in-house

[4] = target: T2, Recombinant Human c-Met-10x His; test: cMET binding ELISA as in Example 3 (plate-bound human cMET)

| binding [1] | binding [2] | binding (human cMET) | binding [3] | binding [4] | Binder |
| --- | --- | --- | --- | --- | --- |
| binds | binds |  |  |  | F6B1P3D12 mouse monoclonal anti-cMET antibody (antibody, V domains shown, Mouse hybridoma antibody) VH: QVQLQQSGAELAKPGASVKMSCRASGYTFTSYWMHWVKQRPGQGLDWIGYIKPSTDNTEYNQKFKDKATLTADKSSSTAYMQLSSLTSEDSAVYYCARSYGNYPLMDYWGQGTSVTVSS VL: QIVLTQSPAIMSASPGEKVTLTCSASSSVTSNYLYWYQQKPGSSPKLWIYSTSNLASGVPARFSGSGSGTSYSLTISSMEAEDAASYFCHQWSSYPPTFGSGTKLEIKR |
|  |  |  | binds | binds | hD12-T289C-II (hD12 variant T289C, payload of chemical formula II site-specifically conjugated) (antibody, human IgG2, kappa, V domains shown, payload of chemical formula II on Cys 289 (EU numbering), maleimide chemistry) VH: QVQLVQSGAEVKKPGASVKVSCKASGYTFTSYWMHWVKQAPGQGLDWIGYIKPSTDNTEYNQKFKDKATLTADKSTSTAYMELSSLRSEDTAVYYCARSYGNYPLMDYWGQGTTVTVSS VL: QIVLTQSPAILSLSPGERATLSCSASSSVTSNYLYWYQQKPGSSPKLLIYSTSNLASGVPARFSGSGSGTSYTLTISSLEAEDAASYFCHQWSSYPPTFGSGTKLEIKR |

The next lines start with the binder.

| Binder | binding [1] | binding [2] | binding (human cMET) | binding [3] | binding [4] |
| --- | --- | --- | --- | --- | --- |
| F6AP8E2 mouse monoclonal anti-cMET antibody (antibody, V domains shown, Mouse hybridoma antibody) VH: EVQLQQSGAELVRPGALVKLSCKASGFNINDYFMHWVKQRPEQGLEWIGWIDPENGNTIYDPKFQGKASITADTSSNTAYLQLSSLTSEDTAVYYCARGGNYLRESYYYAMDYWGQGTSVTVSS VL: DIVMTQSPKSMSMSVGERVTLSCKASENVGTYVSWYQQKPDQSPKLLIYGASNRYTGVPDRFTGSGSATDFTLTISSVQAEDLADYHCGQSYSYPLTFGAGTKLELKR | binds | binds | binds |  |  |
| F6BP2D4 mouse monoclonal anti-cMET antibody (antibody, V domains shown, Mouse hybridoma antibody) VH: QVQLQQSGAELAKPGASVKMSCKASGYTFTSYWMHWVKQRPGQGLEWIGYINPSTDYIEYNQKFKDKATLTAGKSSSTAYMQLSSLTSEDSAVYYCARSYGNFPLMDYWGQGTSVTVSS VL: QIVLTQSPAIMSASPGEKVTLTCSASSSVSSNYLYWYQQKPGSSPKLWIYSTSNLASGVPVRFSGSGSGTSYSLTISSMEAEDAASYFCHQWSSYPPTFGSGTKLEIKR | binds | binds |  |  |  |
| F6B1P1E2 mouse monoclonal anti-cMET antibody (antibody, V domains shown, Mouse hybridoma antibody) VH: QVQLQQSGAELAKPGASVKMSCKASGYTFTSYWMHWVKQRPGQGLEWIGYINPSTDYTEYNQKFKDKATLTADKSSTTAYMQLSSLTSEDSAVYYCVRSYGNYPLMDYWGQGTSVTVSS VL: QIVLTQSPAIMSASPGEKVTLTCSASSSVSSNYLYWYHQKPGSSPKLWIYSTSNLASGVPVRFSGSGSGTSYSLTISSMEAEDAASYFCHQWSSYPPTFGSGTKLEIKR | binds | binds |  |  |  |
